T1: XPA-binding protein (XAB)-2, biotin-tagged knock-in (mouse) (UniProt Q9DCD2)
T1 sequence (chain, biotin on the Avitag (by the BirA ligase in vivo)): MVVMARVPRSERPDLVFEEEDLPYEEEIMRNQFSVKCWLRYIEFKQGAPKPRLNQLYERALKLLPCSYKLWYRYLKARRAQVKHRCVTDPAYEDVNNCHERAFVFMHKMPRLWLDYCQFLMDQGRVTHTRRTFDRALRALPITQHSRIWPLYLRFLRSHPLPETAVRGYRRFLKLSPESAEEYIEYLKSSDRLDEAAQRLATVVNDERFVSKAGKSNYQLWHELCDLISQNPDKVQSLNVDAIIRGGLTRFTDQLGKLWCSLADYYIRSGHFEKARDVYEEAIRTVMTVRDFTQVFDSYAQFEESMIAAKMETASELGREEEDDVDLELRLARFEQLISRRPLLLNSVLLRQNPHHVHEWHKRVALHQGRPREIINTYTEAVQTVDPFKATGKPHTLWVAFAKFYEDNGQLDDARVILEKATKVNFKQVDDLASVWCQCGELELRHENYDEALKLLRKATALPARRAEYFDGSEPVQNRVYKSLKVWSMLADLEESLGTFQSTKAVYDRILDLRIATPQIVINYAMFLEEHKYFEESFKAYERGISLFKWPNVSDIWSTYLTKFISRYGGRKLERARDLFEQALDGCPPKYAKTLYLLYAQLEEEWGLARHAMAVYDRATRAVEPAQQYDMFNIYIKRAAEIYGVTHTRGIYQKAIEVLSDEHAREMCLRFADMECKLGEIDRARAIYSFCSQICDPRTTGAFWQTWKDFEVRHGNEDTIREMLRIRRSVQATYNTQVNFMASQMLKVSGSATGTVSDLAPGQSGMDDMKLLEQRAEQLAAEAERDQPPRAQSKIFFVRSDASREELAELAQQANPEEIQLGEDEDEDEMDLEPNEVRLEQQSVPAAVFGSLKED

B1: NOP58 (protein, UniProt Q6DFW4 1-536)
chain: MLVLFETSVGYAIFKVLNEKKLQEVDSLWKEFETPEKANKIVKLKHFEKFQDTAEALAAFTALMEGKINKQLKKVLKKIVKEAHEPLAVADAKLGGVIKEKLNLSCIHSPVVNELMRGIRSQMDGLIPGVEPREMAAMCLGLAHSLSRYRLKFSADKVDTMIVQAISLLDDLDKELNNYIMRCREWYGWHFPELGKIISDNLTYCKCLQKVGDRKNYASASLSEFLSEEVEAEVKAAAEISMGTEVSEEDICNILHLCTQVIEISEYRTQLYEYLQNRMMAIAPNVTVMVGELVGARLIAHAGSLLNLAKHAASTVQILGAEKALFRALKSRRDTPKYGLIYHASLVGQSSPKHKGKISRMLAAKTVLAIRYDAFGEDSSSAMGIENRAKLEARLRILEDRGIRKISGTGKALAKAEKYEHKSEVKTYDPSGDSTLPTCSKKRKIEEVDKEDEITEKKAKKAKIKIKAEVEEEMEEEEAEEEQVVEEEPTVKKKKKKDKKKHIKEEPLSEEEPCTSTAVPSPEKKKKKKKKKDAED
B2: WDR43 (protein, UniProt Q6ZQL4 1-677)
chain: MAAGGGGSYDPLAPAGVPCAFSPDSQAYFALASSDGQLRVWETANNRLHQEYVPSAHLSGTCTCLAWAPARLQAKESHQRKKRKSEVTGTKDQADLLALGTAVGSILLYSTVRGELHSKLTSGGHENRVNCIQWHQDNDCLYSCSDDKYIVEWSTQTCKVKCKWKGDNSSVSSLCISPDGKMLLSAGRTIKLWVLETKEVYRHFTGHATPVSSLRFTTIRPNESQPSDGITGLYFLSGAVHDRLLNVWQVRSENKEKSAVMSFTVTDEPVYVDLTLSENKEEPVKLAVVCRDGQVHLFEHILNGHCKKPLTSNCTIQIATPGKGKKVTPKPIPILAASFCLDKMSLLLVYGNWFQPTIERVALNSKDTHICLERDISNCWAPTVETAITKVKTPVMNSEAKVLVPGIPGHHAPIKLPPAQPKEAENKRKLGSTEATIEERLGAMDLDRKGRKDDLQTNSFAVLLTQGLESNDFEILNKVLQTKNVNLIKRTVLRIPLRVVIPLLQELTKRLQGHPNSAALMIQWLKCVLTIHASYLSTLPDLVEQLGTLYQLMESRVKTFQKLSNLHGKLILLVTQVTASEKSKKMTSPGQKAKLVYEEESSEEESDDEVPEKDSDDNWDEDEDKDSEKDEGVDEDNEEEDEDMEDKEENEEDREVSSEKELNGDSDLDPENESEEE
B3: UTP15 (protein, UniProt Q8C7V3 1-528)
chain: MAGYKPVAIQTYPVLGEKITQDTLYWNNYKTPVQIKEFGAVSKVDFSPQLPYNYAVTASSRIHIYGRYSQEPVKTFSRFKDTAYCATFRQDGQLLVAGSEDGVVQLFDINGRAPLRQFEGHTKAVHTVDFTADNYHVVSGADDYTVKLWDIPNSKEILTFKEHSDYVRCGCASKLNPDLFVTGSYDHTVKIFDARTNKNVLCVEHGQPVESVLLFPSGGLLVSAGGRYVKVWDMLKGGQLLVSLKNHHKTVTCLCLSSSGQRLLSGSLDRKVKVYSTTSYKVVHSFDYAASILSLALSHQDETIVVGMTNGILSVKHRKSEAKKTSLPRRRRPAYRTFIKGKNYLKQRDDIMVSRPAKKHLEGYDKDLKSFRVSQALDRVLEPKCVIRTPEVTVSIIKELTRRGVLANALAGRDEKEVTRVLNFLIRNLSQPRFAPVLINAAEIIIDIYLPVIGQSSVVDKKFIVLQELVEKEIDYQRELLETLGMMDMLFATMTRNDSDPVPEHVPAELPEEKTESPTQPSDTDKNS
B4: BCAS2 (protein, UniProt Q9D287 1-225)
chain: MAGTGLVAGEVVVDALPYFDQGYEAPGVREAAAALVEEETRRYRPTKNYLSYLTAPDYSAFETDIMRNEFERLAARQPIELLSMKRYELPAPSSGQKNDITAWQECVNNSMAQLEHQAVRIENLELMSQHGCNAWKVYNENLVHMIEHAQKELQKLRKHIQDLNWQRKNMQLTAGSKLREMESNWVSLVSKNYEIERTIVQLENEIYQIKQQHGEANKENIRQDF
B5: Aquarius (protein, UniProt Q8CFQ3 1-1481)
chain: MAAPAQPKKIVAPTVSQINAEFVTQLACKYWAPHIKKKSPFDIKVIEEIYEKEIVKSRFAIRKIMLLEFSQYLENYLWMNYSPEVSSKAYLMSICCMVNEKFRENVPAWETFKKKPDHFPFFFKCILKAALAETDGEFSLHEQTLLLLFLDHCFNSLEVDLIRSQVQQLISLPMWMGLQPARLELELKKTPKLRKFWNLIKKNDEKMDPEAREQAYQERRFLSRLIQKFISVLKSIPLSEPVTMDKVHYCERFIELMIDLEALLPTRRWFNTILDDSHLLVHCYLSSLVHREEDGHLFSQLLDMLKFYTGFEINDQTGNALTENEMTTIHYDRITSLQRAAFAHFPELYDFALSNVAEVDARDSLVKFFGPLSSNTLHQVASYLCLLPTLPKNEDTTFDKEFLLELLVSRHERRISQIQQLNQMPLYPTEKIIWDENIVPTEYYSGEGCLALPKLNLQFLTLHDYLLRNFNLFRLESTYEIRQDIEDSVSRMKPWQSEYGGVVFGGWARMAQPIVAFTVVEVAKPNIGENWPTRVRADVTINLNVRDHIKDEWEGLRKHDVCFLITVRPTKPYGTKFDRRRPFIEQVGLVYVRGCEIQGMLDDKGRVIEDGPEPRPNLRGESRTFRVFLDPNQYQQDMTNTIQNGAEDVYDTFNVIMRRKPKENNFKAVLETIRNLMNTDCVVPDWLHDIILGYGDPSSAHYSKMPNQIATLDFNDTFLSIEHLKASFPGHNVKVTVSDPALQIPPFRITFPVRSGKGKKRKDADGEEDDTEEAKTLIVEPHVIPNRGPYPYNQPKRNTIQFTHTQIEAIRAGMQPGLTMVVGPPGTGKTDVAVQIISNIYHNFPEQRTLIVTHSNQALNQLFEKIMALDIDERHLLRLGHGEEELETEKDFSRYGRVNYVLARRIELLEEVKRLQKSLGVPGDASYTCETAGYFFLYQVMSRWEEYMSRVKNSGTACPDAAPDAAQVATFFPFHEYFANAPQPIFKGRSYEEDMEIAEGCFRHIKKIFTQLEEFRASELLRSGLDRSKYLLVKEAKIIAMTCTHAALKRHDLVKLGFKYDNILMEEAAQILEIETFIPLLLQNPQDGFSRLKRWIMIGDHHQLPPVIKNMAFQKYSNMEQSLFTRFVRVGVPTVDLDAQGRARASLCNLYNWRYKNLGNLPHVQLLPEFSTANAGLLYDFQLINVEDFQGVGESEPNPYFYQNLGEAEYVVALFMYMCLLGYPADKISILTTYNGQKHLIRDIINRRCGNNPLIGRPNKVTTVDRFQGQQNDYILLSLVRTRAVGHLRDVRRLVVAMSRARLGLYIFARVSLFQNCFELTPAFSQLTARPLHLHIIPTEPFPTSRKNGERPPHEVQVIKNMPQMANFVYNMYMHLIQTTHHYHQTFLQLPPAMVEEGEEGQSQETEMEAEEETVSAQGNLTPSPADASLSQETPAAQPDCSSQTEDTSAPCDIATAAEPVSAAAEAATPQDAESVPTETE
B6: XRN2 (protein, UniProt Q9DBR1 1-951)
chain: MGVPAFFRWLSRKYPSIIVNCVEEKPKECNGVKIPVDASKPNPNDVEFDNLYLDMNGIIHPCTHPEDKPAPKNEDEMMVAIFEYIDRLFNIVRPRRLLYMAIDGVAPRAKMNQQRSRRFRASKEGMEAAVEKQRVREEILAKGGFLPPEEIKERFDSNCITPGTEFMDNLAKCLRYYIADRLNNDPGWKNLTVILSDASAPGEGEHKIMDYIRRQRAQPNHDPNTHHCLCGADADLIMLGLATHEPNFTIIREEFKPNKPKPCALCNQFGHEVKDCEGLPREKKGKHDELADSLPCAEGEFIFLRLNVLREYLERELTMASLPFPFDVERSIDDWVFMCFFVGNDFLPHLPSLEIREGAIDRLVNIYKNVVHKTGGYLTESGYVNLQRVQMIMLAVGEVEDSIFKKRKDDEDSFRRRQKEKRKRMKRDQPAFTPSGILTPHALGSRNSPGCQVASNPRQAAYEMRMQRNSSPSISPNTSFASDGSPSPLGGIKRKAEDSDSEPEPEDNVRLWEAGWKQRYYKNKFDVDAADEKFRRKVVQSYVEGLCWVLRYYYQGCASWKWYYPFHYAPFASDFEGIADMSSEFEKGTKPFKPLEQLMGVFPAASGNFLPPTWRKLMSDPDSSIIDFYPEDFAIDLNGKKYAWQGVALLPFVDERRLRAALEEVYPDLTPEENRRNSLGGDVLFVGKLHPLRDFILELYQTGSTEPVDVPPELCHGIQGTFSLDEEAILPDQTVCSPVPMLRDLTQNTAVSINFKDPQFAEDYVFKAAMLPGARKPATVLKPGDWEKSSNGRQWKPQLGFNRDRRPVHLDQAAFRTLGHVTPRGSGTSVYTNTALPPANYQGNNYRPLLRGQAQIPKLMSNMRPQDSWRGPPPLFQQHRFERSVGAEPLLPWNRMIQNQNAAFQPNQYQMLGGPGGYPPRRDDHRGGRQGYPREGRKYPLPPPSGRYSWN
B7: WDR75 (protein, UniProt Q3U821 1-830)
chain: MVEEGVRVVRCGGSRLNFRRAVFSVDSKYIFCVSGDFVKVYSTTTEECVHILHGHTDLVSGILVNPSNHLQLYSCSFDGTIKLWDYVDGILIKTFTIGPKLHAFFIPLHAEDSVFLTISKEEPDIFQLVSVKLPKSTSQDVEARQLTFVLDYINRSPKCIAFGNEGEYVAAVRDFYLSVYFFKKKKTCNFTLPSTKNKKNAKNKFTCVACHPKEDCIASGHMDGKIRLWRNFHSDQKYTYTCLHWHHDMVMDLAFTVTGTSLLSGGRECVLVEWRDGSEKNKEFLPRLGSSIEHISVSPAGDLFCTSHSDNKITVIHRNLDASAVIQGLVKDRSISTGLMVDPRTKALVLNGKPGHLQFYSLQGDKQLYNLDIIQQEYINDEGLTQTELTKAAFGCSGTWLATVEQRQENENELELQMKLWNYSKKTQGFVLNTKIAMPHDDHITALCFNNAESYEKPILVTASRDGHFKVWILTDDSDIYKKAIAWTCDFVGSYHKYQATNCCFSEDGSLLAVSFEEIVTIWDSQTWELKCTFCQRAGKIRHLCFGRLTCSKYLLGTTDNGILCCWNLLSCSIQWSAKLNVRVMEPDPYSDHVAAVAQSSAGSDLFVFKPSEPRPLYIQKNVSREEVQWGVFVPRDVPESFTSETHQWLNRSQFYFLTKSQSLLTFSTKSPEEKLTPTSKQLLAEESLPTTPFSFILGKHRQQQGAKLTETSENELVQLPLTENIPAITELLHTPAHVLPSASFLCSLFVNSLLLSKETKSAEEVPDDVDMEGNKESDDSDEEYDLTEKDKETNNNTDLGEDAIHQLSKSEEKELRKFRKVDYSWLTAL

Results are given in words; binding and its absence hold for the method and conditions named. Binding seen in cells or lysates may run through a third protein. These calls come from enrichment with a bait or labelling near it, and not all partners need be listed. Sequences can lack the tags named with a protein.

The target in the assay is T1, XPA-binding protein (XAB)-2, biotin-tagged knock-in (mouse). Nature of the assay: affinity purification with mass spectrometry.
Consider B1, for which the binding result is “binds”.

As for B2, the binding result is given as “binds”.

With B3, the binding result is listed as “binds”.

Regarding B4, the binding entry is “binds”.

For B5, the binding entry is reported as “binds”.

Regarding B6, the binding result is recorded as “binds”.

As for B7, the binding entry was “binds”.

The record behind these values is paper doi:10.1101/2020.07.20.211441.
